Results taken from article PMC8187598.

System: GlnR (Streptomyces hygroscopicus var. ascomyceticus FS35)
Assay: EMSA
Conditions: 5 ng probe, GlnR titration; EMSA: 5 ng Cy5 probe, 30 min at 28 C, reaction buffer as in Zhang et al. 2019 (composition not given); 6% native PAGE, 0.5x TBE, ice bath, 90 V, 40 min; recombinant protein; residues 1-270; protein details: N-terminal 6xHis; probe letters rebuilt from the primers and the genome

“AGCCAGTGGCGATAAGTGTGGACGTCTCCTCGAAACGACGGCCCGTGCGGGCAGGACATCGGGGGCCGGTATTCGCCTCGAGGTTGGCGCAGCGCCGTTTCAGTCGATGCCACCCGATGTTTCGCCGCAGTGACGAAGGACGCGGGAGTGTTACGTACCGATGAACCGCGGTGAGGAGGGCCACGCCCTCCGTTACCGTGTCGCAACCACCGCGGGGACCGCCTTATCGCCACTGGCT (double strand) [amtB-glnK-glnD promoter probe]”: binds.

The exact form of at least one protein or probe is not confirmed.
